Taken from: PubChem BioAssay AID602196 (INSERM, 2012)
Test: 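Modifiers of cisplatin sensitivity in A549 cells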. System: human A549 lung cancer cells. Reagent: siRNA pair against human genes. Duration: 48 h transfection before cisplatin; time from cisplatin to read-out not stated. Conditions: cisplatin at a dose killing half of control-siRNA cells; exact dose and duration not given. Detection: 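Shift in cisplatin death relative to control siRNA, from -50 (all cells die) to +50 (no cells die); siRNAs harmful on their own scored 0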. Scale: two-siRNA summed score (-2 to +2): higher = both siRNAs protect from cisplatin killing; -2 means both sensitise; mean protection from cisplatin (shift in death): higher = protection from cisplatin killing. Active means: 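siRNAs harmful alone (LDH or WST-1) get 0; others get +1 for less and -1 for more cisplatin killing; genes are active when the two siRNAs give the same sign, summing to ±2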. Calls: active = both siRNAs shift cisplatin killing the same way; inactive = no consistent shift, or siRNA harmful alone.
The whole screen tested about 23,000 reagents; shown is an unselected part. 455 of them (2%) were called active. 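Active includes both protection and sensitisation; some change values fall well beyond the stated -50 to +50 range.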 Entries without a mark were called inactive. Not all columns of the deposit are shown. The record does not give: the amount of reagent.

SLC67A2: two-siRNA summed score (-2 to +2) = 0; mean protection from cisplatin (shift in death) (%) = -0.4
TOMM40: two-siRNA summed score (-2 to +2) = -1; mean protection from cisplatin (shift in death) (%) = -3.5
LOC441039: two-siRNA summed score (-2 to +2) = 0; mean protection from cisplatin (shift in death) (%) = 1.4
FZD4: two-siRNA summed score (-2 to +2) = 1; mean protection from cisplatin (shift in death) (%) = 16.3
SLC25A38P1: two-siRNA summed score (-2 to +2) = 2 (active); mean protection from cisplatin (shift in death) (%) = 14.5
METTL6: two-siRNA summed score (-2 to +2) = 0; mean protection from cisplatin (shift in death) (%) = 0.1
RGS13: two-siRNA summed score (-2 to +2) = -1; mean protection from cisplatin (shift in death) (%) = -14.6
LOC388388: two-siRNA summed score (-2 to +2) = 0; mean protection from cisplatin (shift in death) (%) = 5.9
SNRNP200: two-siRNA summed score (-2 to +2) = 0; mean protection from cisplatin (shift in death) (%) = 1.6
ADCY6: two-siRNA summed score (-2 to +2) = 0; mean protection from cisplatin (shift in death) (%) = -1.9
PBLD: two-siRNA summed score (-2 to +2) = 0; mean protection from cisplatin (shift in death) (%) = 0
UPP1: two-siRNA summed score (-2 to +2) = 0; mean protection from cisplatin (shift in death) (%) = -0.2
LOC388794: two-siRNA summed score (-2 to +2) = 0; mean protection from cisplatin (shift in death) (%) = 2.7
HLA-DRB1: two-siRNA summed score (-2 to +2) = 0; mean protection from cisplatin (shift in death) (%) = 8.1
LOC441805: two-siRNA summed score (-2 to +2) = 0; mean protection from cisplatin (shift in death) (%) = 11.1

4 entries from above in another layout.
{"Target gene":"FZD4","two-siRNA summed score (-2 to +2)":1,"mean protection from cisplatin (shift in death) (%)":16.3}
{"Target gene":"SLC25A38P1","two-siRNA summed score (-2 to +2)":"2 (active)","mean protection from cisplatin (shift in death) (%)":14.5}
{"Target gene":"METTL6","two-siRNA summed score (-2 to +2)":0,"mean protection from cisplatin (shift in death) (%)":0.1}
{"Target gene":"RGS13","two-siRNA summed score (-2 to +2)":-1,"mean protection from cisplatin (shift in death) (%)":-14.6}

The listing continues.
LOC389630: two-siRNA summed score (-2 to +2) = 0; mean protection from cisplatin (shift in death) (%) = 10.7
ATG4C: two-siRNA summed score (-2 to +2) = 0; mean protection from cisplatin (shift in death) (%) = 5.3
CDC25C: two-siRNA summed score (-2 to +2) = -1; mean protection from cisplatin (shift in death) (%) = -8.2
CRTC1: two-siRNA summed score (-2 to +2) = 0; mean protection from cisplatin (shift in death) (%) = 0.4
S100Z: two-siRNA summed score (-2 to +2) = 0; mean protection from cisplatin (shift in death) (%) = 2.9
BSG: two-siRNA summed score (-2 to +2) = -1; mean protection from cisplatin (shift in death) (%) = -10.7
EIF1AD: two-siRNA summed score (-2 to +2) = 0; mean protection from cisplatin (shift in death) (%) = 10.3
WASHC2A: two-siRNA summed score (-2 to +2) = 0; mean protection from cisplatin (shift in death) (%) = 22.3
LOC388438: two-siRNA summed score (-2 to +2) = 0; mean protection from cisplatin (shift in death) (%) = -1.7
LOC440054: two-siRNA summed score (-2 to +2) = 0; mean protection from cisplatin (shift in death) (%) = -3.1
LOC441380: two-siRNA summed score (-2 to +2) = 1; mean protection from cisplatin (shift in death) (%) = 8.7
DDI1: two-siRNA summed score (-2 to +2) = 1; mean protection from cisplatin (shift in death) (%) = 10.6
FCN1: two-siRNA summed score (-2 to +2) = 0; mean protection from cisplatin (shift in death) (%) = -0.1
H1-4: two-siRNA summed score (-2 to +2) = 0; mean protection from cisplatin (shift in death) (%) = 2.6
ZNF521: two-siRNA summed score (-2 to +2) = 0; mean protection from cisplatin (shift in death) (%) = 5.5
PRND: two-siRNA summed score (-2 to +2) = 0; mean protection from cisplatin (shift in death) (%) = 8
LOC440078: two-siRNA summed score (-2 to +2) = 1; mean protection from cisplatin (shift in death) (%) = 19.8
NCR1: two-siRNA summed score (-2 to +2) = 0; mean protection from cisplatin (shift in death) (%) = -2.4
PELP1: two-siRNA summed score (-2 to +2) = 0; mean protection from cisplatin (shift in death) (%) = -3.4
LOC441296: two-siRNA summed score (-2 to +2) = 0; mean protection from cisplatin (shift in death) (%) = -1.6
MRTFA: two-siRNA summed score (-2 to +2) = 0; mean protection from cisplatin (shift in death) (%) = 9.6
LOC442724: two-siRNA summed score (-2 to +2) = 0; mean protection from cisplatin (shift in death) (%) = 10
LOC400729: two-siRNA summed score (-2 to +2) = 1; mean protection from cisplatin (shift in death) (%) = 16.1
DNASE1L2: two-siRNA summed score (-2 to +2) = -1; mean protection from cisplatin (shift in death) (%) = -9.1
CCNP: two-siRNA summed score (-2 to +2) = 0; mean protection from cisplatin (shift in death) (%) = 11
